Results from the supplement of paper PMC10849652.
The other results are listed elsewhere or left out. Residues, ends and D or L forms follow the SMILES beside them. *: point of attachment. Cbz = O=C(OCc1ccccc1)*

The chains behind the UniProt entries cited, without tags or fusion partners. Where a name states a change or a piece, a line headed by the entry shows the natural chain unless it says otherwise.
UniProt Q0VDI3: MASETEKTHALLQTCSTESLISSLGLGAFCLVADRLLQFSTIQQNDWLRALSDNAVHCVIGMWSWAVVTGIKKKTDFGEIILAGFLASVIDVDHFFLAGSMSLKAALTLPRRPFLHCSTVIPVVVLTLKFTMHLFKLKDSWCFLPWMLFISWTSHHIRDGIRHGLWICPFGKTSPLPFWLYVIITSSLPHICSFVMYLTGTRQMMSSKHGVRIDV
UniProt Q96I45: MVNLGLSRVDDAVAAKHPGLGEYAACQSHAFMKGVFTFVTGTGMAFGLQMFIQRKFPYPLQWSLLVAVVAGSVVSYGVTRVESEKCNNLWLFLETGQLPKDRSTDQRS
UniProt Q9P2C4: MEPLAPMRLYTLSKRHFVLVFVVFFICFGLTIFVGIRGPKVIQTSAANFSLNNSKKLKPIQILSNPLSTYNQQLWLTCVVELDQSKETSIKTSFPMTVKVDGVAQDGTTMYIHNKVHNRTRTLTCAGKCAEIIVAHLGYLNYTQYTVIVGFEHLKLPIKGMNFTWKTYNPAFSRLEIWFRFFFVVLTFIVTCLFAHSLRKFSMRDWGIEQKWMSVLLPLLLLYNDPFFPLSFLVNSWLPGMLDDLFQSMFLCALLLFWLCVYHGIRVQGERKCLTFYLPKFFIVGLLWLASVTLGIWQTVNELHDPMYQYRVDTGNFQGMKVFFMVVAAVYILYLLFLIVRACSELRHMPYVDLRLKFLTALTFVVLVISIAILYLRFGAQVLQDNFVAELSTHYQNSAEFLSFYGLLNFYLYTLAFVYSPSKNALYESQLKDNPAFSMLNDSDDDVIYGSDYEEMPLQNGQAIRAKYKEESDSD
UniProt Q96AN5: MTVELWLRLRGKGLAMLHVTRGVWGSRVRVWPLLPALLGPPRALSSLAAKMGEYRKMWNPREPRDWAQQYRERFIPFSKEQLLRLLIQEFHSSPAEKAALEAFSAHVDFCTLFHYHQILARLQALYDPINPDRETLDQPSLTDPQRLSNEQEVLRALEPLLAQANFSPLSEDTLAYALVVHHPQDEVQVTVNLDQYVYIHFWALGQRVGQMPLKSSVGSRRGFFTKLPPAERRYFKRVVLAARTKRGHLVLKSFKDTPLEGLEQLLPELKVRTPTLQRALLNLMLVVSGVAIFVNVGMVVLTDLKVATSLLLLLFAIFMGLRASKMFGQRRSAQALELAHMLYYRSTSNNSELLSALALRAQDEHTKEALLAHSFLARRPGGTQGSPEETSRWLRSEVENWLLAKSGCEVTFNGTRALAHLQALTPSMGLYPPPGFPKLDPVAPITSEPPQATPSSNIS
UniProt Q6UW68: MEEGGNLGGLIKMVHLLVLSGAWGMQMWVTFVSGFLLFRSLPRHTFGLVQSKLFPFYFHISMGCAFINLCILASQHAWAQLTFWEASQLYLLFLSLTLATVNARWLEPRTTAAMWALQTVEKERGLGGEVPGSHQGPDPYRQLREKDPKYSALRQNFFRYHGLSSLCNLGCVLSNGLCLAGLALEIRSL
UniProt Q9P0S9: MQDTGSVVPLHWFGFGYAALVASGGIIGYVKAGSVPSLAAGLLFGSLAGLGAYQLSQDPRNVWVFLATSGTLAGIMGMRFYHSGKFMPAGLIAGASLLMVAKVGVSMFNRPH
UniProt Q9NUM4, whole entry, looked up: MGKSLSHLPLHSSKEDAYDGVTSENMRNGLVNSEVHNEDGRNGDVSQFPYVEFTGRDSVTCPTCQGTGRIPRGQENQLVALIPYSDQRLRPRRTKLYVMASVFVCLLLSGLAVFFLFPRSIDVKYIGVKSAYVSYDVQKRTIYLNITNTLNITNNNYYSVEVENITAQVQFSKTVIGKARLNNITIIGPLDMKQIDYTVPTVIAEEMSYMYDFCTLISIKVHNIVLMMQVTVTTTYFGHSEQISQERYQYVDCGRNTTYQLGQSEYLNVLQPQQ
UniProt Q9BZW5, whole entry, looked up: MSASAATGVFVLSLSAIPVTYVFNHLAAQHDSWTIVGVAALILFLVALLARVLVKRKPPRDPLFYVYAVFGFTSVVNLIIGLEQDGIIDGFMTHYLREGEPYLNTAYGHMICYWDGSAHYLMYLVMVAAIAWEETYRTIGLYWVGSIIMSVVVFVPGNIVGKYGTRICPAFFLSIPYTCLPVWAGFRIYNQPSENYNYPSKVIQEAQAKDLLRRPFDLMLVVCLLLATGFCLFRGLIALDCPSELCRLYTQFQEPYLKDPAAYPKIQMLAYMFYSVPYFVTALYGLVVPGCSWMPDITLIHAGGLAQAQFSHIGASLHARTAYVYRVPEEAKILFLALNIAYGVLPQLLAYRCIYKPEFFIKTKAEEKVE
UniProt Q86XT9, whole entry, looked up: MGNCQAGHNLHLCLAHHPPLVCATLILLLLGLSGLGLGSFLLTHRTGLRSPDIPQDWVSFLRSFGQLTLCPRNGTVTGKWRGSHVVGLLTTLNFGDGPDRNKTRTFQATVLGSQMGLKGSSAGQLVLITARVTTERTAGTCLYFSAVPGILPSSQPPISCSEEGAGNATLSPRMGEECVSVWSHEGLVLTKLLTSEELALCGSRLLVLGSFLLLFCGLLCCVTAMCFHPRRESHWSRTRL
UniProt Q2T9K0: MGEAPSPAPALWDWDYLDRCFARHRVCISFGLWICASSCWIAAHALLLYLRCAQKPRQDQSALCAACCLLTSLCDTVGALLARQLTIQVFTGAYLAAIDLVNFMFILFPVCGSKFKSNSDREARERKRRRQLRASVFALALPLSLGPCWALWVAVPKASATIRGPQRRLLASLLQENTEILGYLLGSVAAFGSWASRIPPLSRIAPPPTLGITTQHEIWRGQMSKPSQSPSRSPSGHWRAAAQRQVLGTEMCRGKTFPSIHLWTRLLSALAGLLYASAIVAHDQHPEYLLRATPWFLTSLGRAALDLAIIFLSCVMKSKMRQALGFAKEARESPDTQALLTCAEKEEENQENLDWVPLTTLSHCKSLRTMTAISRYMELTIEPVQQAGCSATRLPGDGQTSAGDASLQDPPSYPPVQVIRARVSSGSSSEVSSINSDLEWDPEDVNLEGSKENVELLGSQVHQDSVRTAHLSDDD

How the values were obtained:
Assay in all cases: log2 fold change, soluble protein after heating vs DMSO (PISA); higher = thermal stabilisation; K562 cells, 10 uM, 30 min; active = over 0.2 and 3.5 SD of the protein, either way, in both replicates (recomputed)
[1] = compound: C1COCCN1CCN2C3=CC=CC=C3N=C2NC(=O)C4=CC(=CC=C4)[N+](=O)[O-] [IRAK-1-4 Inhibitor I]
Outline: (§1)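 Soluble protein was quantified by TMTpro 16plex LC-MS/MS after channel sums were equalised. It was obtained as the supernatant after 21,000xg for 90 min from pooled aliquots of K562 cells (2×10^6 cells/mL, 10 μM compound, 30 min) heated for 3 min across 48°C-58°C and extracted in PBS with 0.5% NP-40 at 4°C. Thermal stability values are relative to control samples and come from duplicates. They are given as log2 fold changes.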

[2] = compound: C=CC(=O)N1CCC[C@@H](n2nc(-c3ccc(Oc4ccccc4)cc3)c3c(N)ncnc32)C1 [ibrutinib]
Outline: as §1

[3] = compound: CC(=O)c1cnc2ccc(-c3cc(Cl)c(O)c(Cl)c3)nc2c1N[C@H]1CC[C@H](CN(C)C)CC1
Outline: as §1

[4] = compound: CC(C)(C)Cn1c(N)nc2ccc(-c3[nH]c(C(C)(C)C)nc3-c3ccc(F)cc3)nc21 [ralimetinib]
Outline: as §1

[5] = compound: CC(C)C1=C2N=C(C=C(N2N=C1)NCC3=CC=CC=C3)NCCCCCCN
Outline: as §1

[6] = compound: CC(C)C[C@@H](C=O)NC(=O)[C@H](CC(C)C)NC(=O)[C@H](CC(C)C)NC(=O)OCc1ccccc1
Outline: as §1

[7] = compound: CC(C)N(C[C@H]1O[C@@H](n2cnc3c(N)ncnc32)[C@H](O)[C@@H]1O)[C@H]1C[C@@H](CCc2nc3cc(C(C)(C)C)ccc3[nH]2)C1 [pinometostat]
Outline: as §1

[8] = compound: CC1=C(C2=C(C=C1)C(=O)C3=CC=CC=C3N2CCCN)C
Outline: as §1

[9] = compound: CC1=C(C=C(C=C1)NC(=O)C2=CC(=CC=C2)N(C)C)NC(=O)C3=CC=C(C=C3)O
Outline: as §1

[10] = compound: CC1=CC=C(C=C1)SC2=C3C=C(SC3=CN=C2)C(=O)N
Outline: as §1

[11] = compound: CC1=NC(=CC=C1)C2=C(N=C(N2)C(C)(C)C)C3=CC4=NC=CN=C4C=C3
Outline: as §1

[12] = compound: CCCS(=O)(=O)Nc1ccc(F)c(C(=O)c2c[nH]c3ncc(-c4ccc(Cl)cc4)cc23)c1F [vemurafenib]
Outline: as §1

[13] = compound: CCCS(=O)(=O)Nc1ccc(F)c(C(=O)c2c[nH]c3ncc(Cl)cc23)c1F
Outline: as §1

[14] = compound: CCN(CC)Cc1ccc2cc(COC(=O)Nc3ccc(C(=O)NO)cc3)ccc2c1 [givinostat]
Outline: as §1

[15] = compound: CCN(CCCOc1ccc2c(Nc3cc(CC(=O)Nc4cccc(F)c4)[nH]n3)ncnc2c1)CCOP(=O)(O)O [barasertib]
Outline: as §1

[16] = compound: CC1=C(C(CC(=O)N1)C2=CC=C(C=C2)C(F)(F)F)C(=O)NC3=C(C=C4C(=C3)C=NN4)F
Outline: as §1

[17] = compound: CC1=C(C=C(C=C1)NC(=O)C2=CC(=CC=C2)C(C)(C)C#N)NC3=CC4=C(C=C3)N=CN(C4=O)C
Outline: as §1

[18] = compound: CCCc1cc(C)[nH]c(=O)c1CNC(=O)c1cc(-c2ccnc(N3CCN(C)CC3)c2)cc2c1cnn2C(C)C
Outline: as §1

[19] = compound: CC(C)(O)CC(=O)NCCn1ccc2ncnc(Nc3ccc(Oc4cccc(C(F)(F)F)c4)c(Cl)c3)c21
Outline: as §1

[20] = compound: CCCCN(Cc1ccc(C(=O)NO)cc1)C(=O)Nc1ccccc1 [Nexturastat A]
Outline: as §1

Measured: log2 fold change

TMEM267 (UniProt Q0VDI3)
inactive: [1] -0.082 | [2] -0.073 | [3] 0.102 | [4] -0.091 | [5] -0.178 | [6] 0.009 | [7] -0.058 | [8] 0.074 | [9] 0.034 | [10] -0.078 | [11] 0.011 | [12] -0.28 | [13] -0.19 | [14] 0.044 | [15] 0.117

TMEM141 (UniProt Q96I45)
inactive: [1] 0.036 | [2] -0.027 | [3] -0.023 | [5] -0.066 | [7] -0.046 | [16] -0.042 | [8] 0.047 | [17] 0.011 | [10] 0.001 | [11] 0.088 | [12] -0.037 | [13] 0.017 | [18] -0.028 | [14] -0.011 | [15] 0.088

TMEM181 (UniProt Q9P2C4)
inactive: [1] -0.106 | [2] -0.048 | [3] 0.184 | [4] -0.008 | [5] 0.077 | [6] 0.013 | [7] -0.071 | [8] -0.075 | [9] 0.081 | [10] 0.05 | [11] -0.082 | [12] 0.049 | [13] -0.011 | [18] 0.115 | [14] -0.032 | [15] -0.004

TMEM143 (UniProt Q96AN5)
inactive: [1] -0.094 | [3] -0.035 | [5] 0.097 | [7] 0.205 | [8] 0.129 | [17] 0.219 | [11] -0.009 | [18] -0.136 | [14] -0.005

TMEM205 (UniProt Q6UW68)
inactive: [1] 0.05 | [2] 0.001 | [4] -0.067 | [19] -0.14 | [5] 0.024 | [6] -0.124 | [7] 0.033 | [16] 0.144 | [8] 0.036 | [17] -0.18 | [9] 0.023 | [10] -0.105 | [11] -0.119 | [20] -0.146 | [12] 0 | [13] -0.147 | [18] -0.043 | [14] -0.006 | [15] 0.056

TMEM14C (UniProt Q9P0S9)
inactive: [1] 0.041 | [2] 0.102 | [3] -0.105 | [4] -0.093 | [5] -0.003 | [6] -0.008 | [7] 0.088 | [16] -0.257 | [8] 0.08 | [17] -0.021 | [9] 0.098 | [10] -0.017 | [11] 0.072 | [12] -0.041 | [13] 0.027 | [18] -0.19 | [14] 0.043 | [15] -0.058

TMEM106B (UniProt Q9NUM4)
inactive: [1] 0.056 | [2] 0.029 | [3] 0.043 | [19] 0.043 | [5] -0.092 | [7] 0.085 | [8] -0.027 | [17] -0.029 | [10] 0.161 | [11] 0.019 | [20] -0.11 | [12] -0.163 | [13] -0.081 | [18] -0.023 | [14] 0.052 | [15] -0.039

TM6SF1 (UniProt Q9BZW5)
inactive: [1] 0.069 | [3] -0.055 | [4] -0.03 | [19] -0.012 | [5] 0.075 | [6] 0.019 | [7] -0.011 | [16] 0.033 | [8] -0.044 | [17] -0.03 | [9] -0.006 | [10] -0.03 | [11] -0.074 | [20] 0.102 | [12] -0.028 | [13] 0.031 | [18] -0.033 | [14] -0.021

TMEM129
inactive: [16] -0.037 | [8] 0.067 | [10] -0.217 | [13] 0.044

TMEM219 (UniProt Q86XT9)
inactive: [2] 0.115 | [3] 0.083 | [19] -0.015 | [5] 0.007 | [8] -0.134 | [17] 0.021 | [10] 0.02 | [20] 0.311 | [12] 0.172 | [13] -0.107 | [14] -0.029 | [15] -0.187

TMEM44 (UniProt Q2T9K0)
inactive: [1] 0.152 | [5] -0.014 | [7] 0.01 | [16] 0.06 | [11] 0.056 | [14] 0.089

Copied from above (3 entries):
TMEM106B (UniProt Q9NUM4)
inactive: [1] 0.056 | [2] 0.029 | [3] 0.043 | [19] 0.043 | [5] -0.092 | [7] 0.085 | [8] -0.027 | [17] -0.029 | [10] 0.161 | [11] 0.019 | [20] -0.11 | [12] -0.163 | [13] -0.081 | [18] -0.023 | [14] 0.052 | [15] -0.039

TM6SF1 (UniProt Q9BZW5)
inactive: [1] 0.069 | [3] -0.055 | [4] -0.03 | [19] -0.012 | [5] 0.075 | [6] 0.019 | [7] -0.011 | [16] 0.033 | [8] -0.044 | [17] -0.03 | [9] -0.006 | [10] -0.03 | [11] -0.074 | [20] 0.102 | [12] -0.028 | [13] 0.031 | [18] -0.033 | [14] -0.021

TMEM129
inactive: [16] -0.037 | [8] 0.067 | [10] -0.217 | [13] 0.044
